Reference: publication PMC9437053
The exact form of at least one protein or probe is not confirmed. A weaker result is weaker than the reference pair of the same experiment.

What was measured:
[1] = molecular target: ribosomal protein S1 (UniProt P0AG67); assay: EMSA; settings: natural S1, lower than SBS-Down; EMSA: 1 uM biotin-RNA, 1x EMSA/Gel-shift binding buffer (Beyotime), 20 C, 30 min; native PAGE in ice-cold 0.5x TBE, 170 V; salt and pH not stated; recombinant protein; residues 1-557
[2] = molecular target: AcP-acetylated ribosomal protein S1 (AcP-S1Ac) (UniProt P0AG67); assay: EMSA; settings: AcP-acetylated, EMSA: 1 uM biotin-RNA, 1x EMSA/Gel-shift binding buffer (Beyotime), 20 C, 30 min, native PAGE in ice-cold 0.5x TBE, 170 V, salt and pH not stated, recombinant protein, residues 1-557

| Sequence | binding result [1] | binding result ([2]; affinity increased vs natural S1) | binding result ([2]; affinity decreased vs natural S1) |
| --- | --- | --- | --- |
| UCGGCUCGUAUAAUGUGUGGAACGCUUUCCGUAAAUAAAGGAGAUAUACC [SBS-Up-RNA] | binds more weakly | binds | – |
| UCGGCUCGUAUAAUGUGUGGAACGCUUUUACUGUUUUAAGGAGAUAUACC [SBS-Down-RNA] | – | – | binds more weakly |
